In patent US20260048125A1:
No constants are given. Whether binding was seen depends on the method and setting. Some entries that bind do so weakly or less than the wild type.

Protein sequences, listed by entry. Tags and fused reporters are not part of them. Lines headed by an entry give the natural chain unless they say otherwise; changes in a name come on top. Residues count along the entry.
UniProt P20138, residues 18-259: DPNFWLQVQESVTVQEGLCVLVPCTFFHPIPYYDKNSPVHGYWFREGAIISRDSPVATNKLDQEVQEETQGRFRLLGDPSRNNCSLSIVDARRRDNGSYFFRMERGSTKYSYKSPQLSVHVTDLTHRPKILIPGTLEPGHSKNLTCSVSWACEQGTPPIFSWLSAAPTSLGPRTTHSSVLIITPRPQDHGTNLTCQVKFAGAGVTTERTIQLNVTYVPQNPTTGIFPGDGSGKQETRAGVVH
UniProt P01637: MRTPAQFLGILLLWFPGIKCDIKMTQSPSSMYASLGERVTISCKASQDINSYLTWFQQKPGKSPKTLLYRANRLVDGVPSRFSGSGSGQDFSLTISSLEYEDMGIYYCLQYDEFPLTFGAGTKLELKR
UniProt P01647: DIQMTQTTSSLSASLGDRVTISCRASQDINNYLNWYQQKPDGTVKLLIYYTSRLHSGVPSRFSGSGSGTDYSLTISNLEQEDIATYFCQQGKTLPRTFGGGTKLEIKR

Molecular target: recombinant CD33 protein pre-labeled with Phycoerythrin (PE) (UniProt P20138)
Experiment: flow cytometry, CAR on Jurkat reporter cells stained with PE-labeled recombinant CD33

binding	Substance
binds	anti-CD33 CAR "CAR-7" (from UniProt P01637 21-128)
binds	anti-CD33 CAR "CAR-9" (from UniProt P01647 1-107)
